These are yes or no findings as the source states them, for the method shown. Binding seen in cells or lysates may run through a third protein. Here binding means that the protein was enriched with, or labelled near, the bait; the list need not be complete.

The text below walks through data of PMC7235348.

The target in assay [1] is T1, MgsR^C-Strep (Bacillus subtilis) (UniProt P54503).
T1 sequence: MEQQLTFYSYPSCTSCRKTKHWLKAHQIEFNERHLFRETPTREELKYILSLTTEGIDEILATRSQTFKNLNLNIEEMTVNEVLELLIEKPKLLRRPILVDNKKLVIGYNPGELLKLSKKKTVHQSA
The experiment in a line: affinity purification with mass spectrometry; Strep-tag purification of MgsR^C-Strep without formaldehyde crosslinking, after 4% ethanol stress; SDS-PAGE with silver staining and MS of gel lanes.

The target in assay [2] is T1, MgsR^C-Strep (Bacillus subtilis). The experiment in a line: affinity purification with mass spectrometry; SPINE: in vivo crosslinking with 0.6% formaldehyde (20 min, 37°C) added 10 min after 4% ethanol, Strep-tag purification of MgsR^C-Strep from French-press lysate in buffer W (200 mM NaCl, 50 mM Tris/HCl, pH 8.0), crosslinks reversed by heating, gel lanes digested and analysed by MS; crosslinked wild-type 168 as negative control.

Assay [3] shares this target. Described as above. The source holds these as a separate data set.

ClpC ATPase (from UniProt P37571 1-810): the binding result in assay [1] and in assay [2] was “binds” in each case.

For the molecule ClpX ATPase (from UniProt P50866 1-420), the binding entry in assay [1] and in assay [2] was “binds” throughout.

Regarding “RNA polymerase subunit RpoB (from UniProt P37870 1-1193)”, the binding entry in assay [1] and in assay [2] was “binds” throughout.

“chaperonin GroEL (from UniProt P28598 1-544)”: the binding result in assay [1] is listed as “binds”.

B1: McsB arginine kinase (enzyme, UniProt P37570 1-363)
chain: MSLKHFIQDALSSWMKQKGPESDIVLSSRIRLARNFEHIRFPTRYSNEEASSIIQQFEDQFSEQEIPGIGKFVLIRMNDAQPLEKRVLVEKHLISPNLTESPFGGCLLSENEEVSVMLNEEDHIRIQCLFPGFQLLEAMKAANQVDDWIEEKVDYAFNEQRGYLTSCPTNVGTGLRASVMMHLPALVLTRQINRIIPAINQLGLVVRGIYGEGSEAVGNIFQISNQITLGKSEQDIVEDLNSVAAQLIEQERSAREAIYQTSKIELEDRVYRSYGVLSNCRMIESKETAKCLSDVRLGIDLGIIKGLSSNILNELMILTQPGFLQQYSGGALRPNERDIRRAALIRERLHLEMNGKRQEDESI
B1: the binding entry in assay [3] is on record as “binds”.

B2: RpoA, the α subunit of RNA polymerase (protein, UniProt P20429 1-314)
chain: MIEIEKPKIETVEISDDAKFGKFVVEPLERGYGTTLGNSLRRILLSSLPGAAVTSIQIDGVLHEFSTIEGVVEDVTTIILHIKKLALKIYSDEEKTLEIDVQGEGTVTAADITHDSDVEILNPDLHIATLGENASFRVRLTAQRGRGYTPADANKRDDQPIGVIPIDSIYTPVSRVSYQVENTRVGQVANYDKLTLDVWTDGSTGPKEAIALGSKILTEHLNIFVGLTDEAQHAEIMVEKEEDQKEKVLEMTIEELDLSVRSYNCLKRAGINTVQELANKTEEDMMKVRNLGRKSLEEVKAKLEELGLGLRKDD
Turning to B2, the binding result in assay [3] is on record as “binds”.

B3: LonA (protein, UniProt P37945 1-774)
chain: MAEELKRSIPLLPLRGLLVYPTMVLHLDVGRDKSVQALEQAMMHDHMIFLATQQDISIDEPGEDEIFTVGTYTKIKQMLKLPNGTIRVLVEGLKRAHIVKYNEHEDYTSVDIQLIHEDDSKDTEDEALMRTLLDHFDQYIKISKKISAETYAAVTDIEEPGRMADIVASHLPLKLKDKQDILETADVKDRLNKVIDFINNEKEVLEIEKKIGQRVKRSMERTQKEYYLREQMKAIQKELGDKEGKTGEVQTLTEKIEEAGMPDHVKETALKELNRYEKIPSSSAESSVIRNYIDWLVALPWTDETDDKLDLKEAGRLLDEEHHGLEKVKERILEYLAVQKLTKSLKGPILCLAGPPGVGKTSLAKSIAKSLGRKFVRISLGGVRDESEIRGHRRTYVGAMPGRIIQGMKKAGKLNPVFLLDEIDKMSSDFRGDPSSAMLEVLDPEQNSSFSDHYIEETFDLSKVLFIATANNLATIPGPLRDRMEIINIAGYTEIEKLEIVKDHLLPKQIKEHGLKKSNLQLRDQAILDIIRYYTREAGVRSLERQLAAICRKAAKAIVAEERKRITVTEKNLQDFIGKRIFRYGQAETEDQVGVVTGLAYTTVGGDTLSIEVSLSPGKGKLILTGKLGDVMRESAQAAFSYVRSKTEELGIEPDFHEKYDIHIHVPEGAVPKDGPSAGITMATALVSALTGRAVSREVGMTGEITLRGRVLPIGGLKEKALGAHRAGLTTIIAPKDNEKDIEDIPESVREGLTFILASHLDEVLEHALVGEKK
Take B3: in assay [3], the binding result is on record as “binds weakly”.
